Reference: US20100269180A1
These are yes or no findings as the source states them, for the method shown. A result given as binding can be weak or reduced; the word gives no strength.

Key:
[1] = target: T1, T-cadherin (endogenous, mouse, on cardiomyocyte surfaces) (mouse) (UniProt Q9WTR5); assay: immunostaining of hearts of adAPN-treated adiponectin null mice
T1 sequence (GPI anchor, looked up): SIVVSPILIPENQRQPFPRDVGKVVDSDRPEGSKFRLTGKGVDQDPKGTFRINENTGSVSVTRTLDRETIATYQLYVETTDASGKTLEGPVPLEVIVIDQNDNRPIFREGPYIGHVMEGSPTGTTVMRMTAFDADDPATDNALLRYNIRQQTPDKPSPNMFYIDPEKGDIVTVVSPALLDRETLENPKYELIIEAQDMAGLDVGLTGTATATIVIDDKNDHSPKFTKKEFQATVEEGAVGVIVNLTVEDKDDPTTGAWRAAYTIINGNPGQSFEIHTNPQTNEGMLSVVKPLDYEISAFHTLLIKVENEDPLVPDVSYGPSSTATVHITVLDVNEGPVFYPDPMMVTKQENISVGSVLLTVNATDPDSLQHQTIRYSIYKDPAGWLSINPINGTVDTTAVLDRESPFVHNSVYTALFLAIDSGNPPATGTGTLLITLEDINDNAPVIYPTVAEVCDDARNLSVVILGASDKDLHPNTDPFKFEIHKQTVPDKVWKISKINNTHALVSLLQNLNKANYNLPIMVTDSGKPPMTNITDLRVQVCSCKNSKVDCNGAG

[2] = target: T1, T-cadherin (endogenous, mouse, on cardiomyocyte surfaces) (mouse); assay: immunostaining of hearts of adAPN-treated adiponectin null mice (FIG. 13A legend)

adenovirus-expressed recombinant adiponectin (ligand)
binding [1]: binds | binding [2]: binds
